Data published in US10260060B2, “Genetically modified phenylpyruvate decarboxylase, processes to prepare, and uses thereof” (Dow Global Technologies LLC, priority 2014, dated 2019).
At least one structure is not confirmed: it was looked up by name or label, or the drawing left a doubt.

Target: T1, Azospirillum brasilense phenylpyruvate decarboxylase (AbPPDC) variant Q536I, SEQ ID 38 (Azospirillum brasilense, UniProt P51852, Q536I)
T1 construct: made in house; host or cells: E. coli BL21(DE3)
T1 sequence (P51852 1-545 Q536I): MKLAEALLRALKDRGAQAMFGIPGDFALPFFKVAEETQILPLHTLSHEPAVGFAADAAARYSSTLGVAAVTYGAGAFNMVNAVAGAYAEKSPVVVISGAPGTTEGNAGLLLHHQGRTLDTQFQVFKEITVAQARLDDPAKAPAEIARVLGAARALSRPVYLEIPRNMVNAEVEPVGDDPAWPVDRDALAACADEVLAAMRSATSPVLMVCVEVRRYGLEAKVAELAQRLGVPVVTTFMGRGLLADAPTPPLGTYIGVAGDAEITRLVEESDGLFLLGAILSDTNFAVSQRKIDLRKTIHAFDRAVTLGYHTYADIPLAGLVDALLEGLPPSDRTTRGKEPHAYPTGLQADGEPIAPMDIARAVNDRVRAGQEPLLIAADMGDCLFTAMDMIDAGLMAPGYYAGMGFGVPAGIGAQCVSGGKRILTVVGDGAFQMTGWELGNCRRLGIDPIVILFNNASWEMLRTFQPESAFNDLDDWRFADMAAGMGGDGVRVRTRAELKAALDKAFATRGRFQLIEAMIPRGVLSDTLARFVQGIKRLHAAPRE
Assay: HTP AbPPDC coupled enzyme assay (ADH6/NADPH), 2-ketoacid decarboxylation kinetics, Q536I
Assay type: biochemical
Conditions: 2-KN over 2-KO
Procedure: The evaluation of the AbPPDC variants is performed in two steps using the high-throughput enzyme assay described hereinbelow. Initially, all the variants are tested for activity against a single high concentration (2 mM) of 2-KH and 2-KN (as shown in Table 1). Following the initial evaluation, detailed kinetic analysis is performed on a select number of variants to determine the maximal rate (kcat), substrate concentration yielding half maximal rate (K0.5, equivalent of KM for enzymes following Michaelis-Menten kinetics), and the catalytic efficiency of the enzyme (kcat/K0.5) against 2-KO and 2-KN (as shown in Table 2). AbPPDC variants, having higher specificity (higher kcat/K0.5) for 2-KN, will be efficient in producing octanal and chemicals derived from it inside the cells.
To evaluate the substrate specificity of the wild type AbPPDC and its variants listed in Table 1, genes of all the proteins are expressed in E. coli cells separately and the protein products are isolated from the cells. […]
A high-throughput AbPPDC coupled enzyme assay is developed for evaluating the substrate specificity of AbPPDC variants. […] The initial velocities of the AbPPDC catalyzed reactions are determined from the rates of oxidation of reduced nicotinamide adenine dinucleotide phosphate (NADPH) occurring during the ADH6 catalyzed reduction of aldehyde. […]

## CCCCCCCC(=O)C(=O)O [2-KN, 2-ketononanoate]
  Spec (specificity: ratio of kcat/K0.5 for 2-KN to that for 2-KO): 2.0
